Here are results for 1 compound from paper PMC6764124, “Baricitinib reverses HIV-associated neurocognitive disorders in a SCID mouse model and reservoir seeding in vitro” (Journal of Neuroinflammation, 2019).

Experiment [1] deals with HAND mice (IC injection of HIV-infected human MDM). The experiment is described as follows: Object recognition testing (ORT) in SCID mouse HAND model. The settings on record: days 12 and 13, after 6 and 7 days of treatment. Type of experiment: in vivo, SCID mice. How it is done: Four-week-old B6.CB17-Prkdc^scid/SzJ (SCID) male mice were injected IC with 30 μL of HIV-infected MDMs suspended in 0.9% saline, directly into the frontal lobe of the right hemisphere. The injection was done free-handed (without a stereotactic device). The injection is performed with a syringe that allows a very slow rate of infusion. We have verified the injection site with a histological staining in our previously published works, which is in the basal ganglia as described in Koneru et al.. Injections were performed on day 0 (D0). Treatments (baricitinib or saline) were given subcutaneously (SC). There were 4 groups of mice: (1) control (uninfected MDM) group, (2) HIV-infected MDM (HAND) plus saline, (3) HIV-infected MDM (HAND) + 10 mg/kg baricitinib qd, and (4) HIV-infected MDM (HAND) + 50 mg/kg baricitinib qd (n = 9 per group).
On day 4 post-IC injection, the mice experienced 10 min of acclimatization to a Plexiglas chamber (60 cm × 60 cm). On day 5 post-injection, a “training phase” followed by a “preference test” after a delay of 5 min was performed on each mouse. […] Exploration times were recorded and used to calculate a discrimination index (DI, (time spent with object A minus time spent with object B)/(total time exploring both objects)) for the training and for the test sessions, respectively. […]

Experiment [2] concerns HIV-1baL. The experiment is described as follows: Antiviral activity in primary human macrophages (p24 ELISA). The settings on record: Human immunodeficiency virus 1, Macrophage, read-out: EC50 inhibition of HIV replication in macrophages. It counts as cell-based. An excerpt: Mϕ and monocytes were isolated as previously described. […] Cells were maintained for 6 days before viral quantification (p24-ELISA). For in vitro activation marker studies, CD14^+ monocytes or fully differentiated (CD14^−/CD11b^+) Mϕ were used. Monocytes were used as a model to mimic HIV-induced activation that transpires in the periphery, wherein presence or internalization of HIV-1 in monocytes confers activation (CD14^+/CD16^+) and subsequent trafficking of “Trojan horse” monocytes across and within the BBB [11, 12]. The method used to differentiate Mϕ (CD14^−/CD11b^+) has been validated by our group to ensure that these cells are no longer expressing monocyte marker CD14 and are mature Mϕ (CD11b expression). Mϕ or monocytes were treated with various concentrations of drug prior to infection (HIV-1baL) and maintained for 3 days before quantification of HLA-DR, CD163 (Mϕ), or CD14/CD16 (monocytes; Miltenyi Biotec, San Diego, CA). Mϕ and monocytes were treated with various concentrations of drug for 6 days and stained with Near-IR live/dead dye and quantified by FACS. Antiviral potency was calculated as previously described.

The test system of experiment [3] is HIV replication in primary PBM cells. The experiment is described as follows: Antiviral activity in activated peripheral blood mononuclear (PBM) cells. Type of experiment: cell-based, HIV-1. The settings on record: Human immunodeficiency virus 1, PBMC, read-out: EC50 inhibition of HIV replication in PBM cells.
Experiment [4] deals with J-lat T cells. Kind of experiment: TNF-α-induced reactivation of latent HIV-1 in J-lat T cells. It counts as cell-based. The settings on record: Homo sapiens, T-cell, read-out: EC50 inhibition of TNF-α induced reactivation.
Experiment [5] concerns latent HIV-1 in primary human Mϕ. Kind of experiment: PMA-induced reactivation of HIV-1 from latent primary human macrophages (p24 ELISA). Type of experiment: cell-based. The settings on record: Macrophage, 50 ng/mL PMA, 24 h, read-out: EC50 inhibition of PMA induced reactivation. How it is done: Primary human Mϕ were prepared as described above and infected with an MOI of 0.5 with HIV-1BaL for 4 h prior to removal of virus and culture in virus-free medium. Supernatants were collected every 5 days, and extracellular p24 production was monitored (p24 ELISA, ABL, Inc.). Fresh culture medium was added to cultures every 5 days as supernatants were collected for p24 analysis. When extracellular p24 levels were below limit of detection (about 30 days post-infection), cells were incubated with various concentrations of baricitinib (0.001, 0.01, 0.1, 1.0, 10 μM), 3TC (negative control; same concentrations), or drug-free medium, for 2 h prior to addition of 50 ng/mL phorbol myristate acetate (PMA) to cultures to induce reactivation of latent HIV-1. After 24 h post-reactivation, cellular supernatants were collected, and extracellular reactivated p24 was quantified (p24 ELISA). Percent inhibition of reactivation was calculated versus no drug controls, and EC50/90 were calculated as previously described.

The test system of experiment [6] is non-dividing p24+ primary CD4+ T cells. The experiment is described as follows: Frequency of non-dividing p24+ latent primary CD4+ T cells in vitro. Type of experiment: cell-based. The settings on record: Homo sapiens, read-out: EC50 reduction of non dividing latent CD4 T cells.
The test system of experiment [7] is HLA-DR and CD163 in primary human Mϕ. Kind of experiment: HIV-induced upregulation of activation markers HLA-DR and CD163 in primary human macrophages. It counts as cell-based. The settings on record: Macrophage, read-out: EC50 inhibition of HIV-induced HLA-DR and CD163. An excerpt:
Mϕ and monocytes were isolated as previously described. […] Cells were maintained for 6 days before viral quantification (p24-ELISA). For in vitro activation marker studies, CD14^+ monocytes or fully differentiated (CD14^−/CD11b^+) Mϕ were used. […] The method used to differentiate Mϕ (CD14^−/CD11b^+) has been validated by our group to ensure that these cells are no longer expressing monocyte marker CD14 and are mature Mϕ (CD11b expression). […] Miltenyi Biotec, San Diego, CA). Mϕ and monocytes were treated with various concentrations of drug for 6 days and stained with Near-IR live/dead dye and quantified by FACS. Antiviral potency was calculated as previously described. Primary human monocytes or Mϕ were isolated as described above and cultured in the following conditions: […] Cells were harvested and stained for CD14^+ (FITC)/CD16^+ (APC) to quantify HIV-induced activation or impact of drugs on block of these markers.

By EC50 is commonly meant the concentration at which the effect is half-maximal. Take `CCS(=O)(=O)N1CC(CC#N)(n2cc(-c3ncnc4[nH]ccc34)cn2)C1` [Baricitinib]: the “ORT abnormalities (discrimination index)” value in experiment [1] (10 mg/kg qd SC) and in experiment [1] (50 mg/kg qd SC) was “reversed” throughout. The EC50 stood at 200 ± 100 nM in experiment [2]; 9 ± 3 nM in experiment [3]; 100 ± 80 nM in experiment [4]; 90 ± 40 nM in experiment [5]; 50 ± 20 nM in experiment [6]; 100 nM in experiment [7].
